Assay results published in patent US20130089557A1 (SAMSUNG ELECTRONICS, published 2013).
These are yes or no findings as the source states them, for the method shown. Some entries that bind do so weakly or less than the wild type.

Amino acid sequences for entries named in this document (tags omitted). Residues count along the entry.
UniProt P08581, residues 25-932: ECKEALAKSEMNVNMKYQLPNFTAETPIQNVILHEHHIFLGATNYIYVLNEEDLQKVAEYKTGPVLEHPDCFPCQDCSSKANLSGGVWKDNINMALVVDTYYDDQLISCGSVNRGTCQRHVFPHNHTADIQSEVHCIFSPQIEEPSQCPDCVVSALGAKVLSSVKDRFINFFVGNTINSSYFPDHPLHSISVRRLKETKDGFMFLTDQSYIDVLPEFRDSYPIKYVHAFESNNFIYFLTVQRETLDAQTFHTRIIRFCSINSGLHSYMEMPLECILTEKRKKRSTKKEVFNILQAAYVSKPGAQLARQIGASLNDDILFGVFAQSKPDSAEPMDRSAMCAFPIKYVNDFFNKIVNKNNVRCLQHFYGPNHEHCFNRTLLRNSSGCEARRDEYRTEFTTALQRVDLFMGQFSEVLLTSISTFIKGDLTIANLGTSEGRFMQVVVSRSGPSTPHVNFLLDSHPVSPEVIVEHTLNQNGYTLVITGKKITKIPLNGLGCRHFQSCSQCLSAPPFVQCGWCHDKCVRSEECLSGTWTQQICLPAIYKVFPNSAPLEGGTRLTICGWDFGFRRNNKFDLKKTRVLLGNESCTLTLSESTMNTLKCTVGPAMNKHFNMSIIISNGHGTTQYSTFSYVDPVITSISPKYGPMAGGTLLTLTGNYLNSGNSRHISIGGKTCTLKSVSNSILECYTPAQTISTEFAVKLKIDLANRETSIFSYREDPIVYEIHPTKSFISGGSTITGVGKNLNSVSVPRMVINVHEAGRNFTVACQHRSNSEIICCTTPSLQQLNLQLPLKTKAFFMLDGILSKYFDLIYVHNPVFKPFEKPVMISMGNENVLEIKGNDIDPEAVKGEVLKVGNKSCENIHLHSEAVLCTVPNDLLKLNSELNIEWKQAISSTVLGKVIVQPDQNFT

Target: T1, human c-Met protein (human, UniProt P08581 25-932, limits assumed)
T1 construct: also called c-Met antigen
Test: scFv library screening, method not described

Row | binding | Binder
1 | binds | YC374 (scFv) scFv: EVQLVESGGGLVQPGGSLRLSCAASGFTFTDYYMSWVRQAPGKGLEWLGFIRNKANGYTTEYSASVKGRFTISRDNSKNTLYLQMNSLRAEDTAVYYCARDNWLTYWGQGTLVTVSSGLGGLGGGGSGGGGSGGSSGVGSDIQMTQSPSSLSASVGDRVTITCKSSQSLLASGNQNNYLAWHQQKPGKAPKMLIIWASTRVSGVPSRFSGSGSGTDFTLTISSLQPEDFATYYCQQSYSAPLTFGQGTKVEIKR
2 | binds | YC354 (scFv) scFv: EVQLVESGGGLVQPGGSLRLSCAASGFTFTDYYMSWVRQAPGKGLEWLGFIRNKANGYTTEYSASVKGRFTISRDNSKNTLYLQMNSLRAEDTAVYYCARDNWLSYWGQGTLVTVSSGLGGLGGGGSGGGGSGGSSGVGSDIQMTQSPSSLSASVGDRVTITCKSSQSLLASGNQNNYLAWHQQKPGKAPKMLIIWASTRVSGVPSRFSGSGSGTDFTLTISSLQPEDFATYYCQQSYSAPLTFGQGTKVEIKR
